# Results: PubChem BioAssay AID1439 (NMMLSC, 2008)
# Amino acid sequences for entries named in this document (tags omitted).
# UniProt P09471, whole entry, looked up: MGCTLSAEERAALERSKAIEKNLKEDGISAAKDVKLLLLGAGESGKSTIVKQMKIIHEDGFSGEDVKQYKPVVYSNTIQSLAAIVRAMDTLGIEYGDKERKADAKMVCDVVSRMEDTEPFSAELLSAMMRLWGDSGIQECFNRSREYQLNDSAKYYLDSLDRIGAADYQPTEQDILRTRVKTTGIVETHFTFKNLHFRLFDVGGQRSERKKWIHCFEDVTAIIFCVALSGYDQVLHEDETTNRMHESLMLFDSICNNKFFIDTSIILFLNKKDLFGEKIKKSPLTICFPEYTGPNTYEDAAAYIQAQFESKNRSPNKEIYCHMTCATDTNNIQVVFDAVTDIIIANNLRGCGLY
# Among all 220,000 compounds or so, about 770 (0.35%) were called active. The shares of active, inactive and inconclusive entries below differ from those in the screen. Cut-off read from the data, not from the text of the source: active = binding response below about 49% or above about 150%; inconclusive = no clear call, values can overlap the other calls; inactive = in between.
# Target: Guanine nucleotide-binding protein G(o) subunit alpha (Homo sapiens) (UniProt P09471)
# Assay: compounds changing RGS7 association with Galphao – biochemical, multiplexed bead flow cytometry, primary screen (AID 1439);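 note: fluorescent Galphao held in activated GDP-AlF4 state binding bead-coupled RGS7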
# Settings: at 10 µM, actives lie on both sides
row,SMILES,binding response (% of control)
1,N/C(=N\N=C\c1ccc(O)cc1O)N[N+](=O)[O-],inactive: 88.3%
2,CCCCn1c(O)c(C(C)=NCc2ccc3c(c2)OCO3)c(=O)[nH]c1=O,inconclusive: 164%
3,O=C1NC(=O)C(=Cc2ccc3ccccc3c2)C(=O)N1,inconclusive: 357%
4,CCN1CCC2(CCNC2)C1 (stereo not given),inactive: 100%
5,O=C1CCN(C(=O)CCCn2c(=O)oc3ccccc32)CC1,inconclusive: 108%
6,COC1CC(OC2CCC3(C)C(CCC4C3CCC3(C)C(C5=CC(=O)OC5)C(OC(C)=O)CC43O)C2)OC(C)C1OC1OC(COC2OC(CO)C(O)C(O)C2O)C(O)C(O)C1O (stereo not given),inconclusive: 109%
7,Cn1c(O)c(/C=C2\N=c3ccccc3=C2CCNC(=S)NC2CC2)c(=O)n(C)c1=O,inconclusive: 118%
8,CC[n+]1c(/C=C/C=C/c2ccc(N(C)C)cc2)sc2ccccc21,inconclusive: 158%
9,CCN(CC)c1ccc(N=Cc2c(O)n(-c3ccccc3)c(=O)[nH]c2=O)cc1,inconclusive: 99.1%
10,CC/C(=N\NC(=O)c1ccccc1O)c1c(O)n(Cc2ccccc2)c(=O)[nH]c1=O,inconclusive: 83.7%
11,COC(=O)c1ccc(C(C(=O)NC2CCCCC2)N(CCN2CCOCC2)C(=O)Cc2cccs2)cc1 (stereo not given),inactive: 106%
12,COC(=O)[C@]12OC[C@]34C([C@@H](O)[C@@H]1O)[C@]1(C)CC(=O)C(O)=C(C)[C@@H]1C[C@H]3OC(=O)[C@H](O)[C@@H]24 (stereo not given in full),inconclusive: 118%
13,CCOC(=O)c1c(C)n(Cc2ccc(F)cc2)c2ccc(O)cc12,inconclusive: 76.3%
14,COc1cccc(N2C(=O)NC(=O)/C(=C/c3ccc([N+](=O)[O-])s3)C2=O)c1,inconclusive: 68.5%
15,Cc1ccc2c(c1)CC1(CN2C)C(=O)NC(=O)N(c2ccc(C)c(C)c2)C1=O (stereo not given),inactive: 109%
16,Cc1oc(-c2ccc(F)cc2F)nc1CN1C[C@@H]2C[C@@H](C1)c1cccc(=O)n1C2,inactive: 99.1%
17,COc1ccc(-c2[nH]ncc2CNC(C)Cc2ccsc2)c(F)c1 (stereo not given),inactive: 103%
18,COP(=O)(C#Cc1ccccc1)C(O)c1ccc(Br)cc1 (stereo not given),inconclusive: 123%
19,Cc1nc2ccccc2c(=O)n1-c1ccc(Br)cn1,inconclusive: 104%
20,COc1ccc(C=C2C(=O)N(C)C(=O)N(C)C2=O)cc1COc1ccc(NC(C)=O)cc1,inconclusive: 88.9%
21,CC1CCCCN1Cc1c[nH]c2ccccc12 (stereo not given),inconclusive: 79.8%
22,C=C1C(=O)O[C@@H]2C[C@@H](C)[C@H]3C=CC(=O)[C@]3(O)C[C@@H]12,inconclusive: 91.1%

row,SMILES,binding response (% of control)
1,O=C1NC(=O)C(CCc2ccccn2)(Cc2ccc3c(c2)OCO3)C(=O)N1CCc1ccccc1 (stereo not given),inactive: 103%
2,c1ccc(-c2[nH]c[n+](CC3CO3)c2-c2ccccc2)cc1 (stereo not given),inactive: 102%
3,Cc1ccc(C(=O)O)cc1N=Nc1c(O)[nH]c(=O)[nH]c1=O,inconclusive: 85.1%
4,O=c1[nH]c(=S)n(Cc2ccc(F)cc2)c(O)c1C=NCc1ccc2c(c1)OCO2,inconclusive: 107%
5,Cc1ccc(-n2c(O)c(C=NCC3CCCO3)c(=O)[nH]c2=O)c(C)c1 (stereo not given),inconclusive: 108%
6,CNc1ccc2oc(C[C@H]3O[C@@]4(CC[C@H]3C)O[C@H]([C@H](C)C(=O)c3ccc[nH]3)[C@H](C)C[C@H]4C)nc2c1C(=O)O,inconclusive: 78.2%
7,COCc1cc(OC(=O)N(C)C)nc(-c2ccccc2)n1,inconclusive: 56.3%
8,O=c1[nH]c(=O)n(Cc2ccccc2)c(O)c1/C=N/NCCO,inconclusive: 73.8%
9,C=CCn1c(O)c(C(C)=NCCCN(C)C)c(=O)[nH]c1=O,inconclusive: 104%
10,Cc1ccc(-n2c(-c3cccs3)nc3ccccc3c2=O)cc1,inactive: 102%
11,CCCCCn1c(=O)c(C(=O)Nc2nc(CC(=O)OCC)cs2)c(O)c2ccccc21,inactive: 102%
12,CNC(=O)O/N=C(\N)Cc1csc2ccc(Cl)cc12,inconclusive: 152%
13,C=CCn1c(O)c(C=Nc2c(C)n(C)n(-c3ccccc3)c2=O)c(=O)[nH]c1=O,inconclusive: 101%
14,O=[N+]([O-])c1cc(-n2cnnn2)c(O)c([N+](=O)[O-])c1,inconclusive: 115%
15,CCNC(=S)NCCC1=c2ccccc2=N/C1=C\c1c(O)n(C)c(=O)n(C)c1=O,inconclusive: 622%
16,O=C1OC(c2ccc([N+](=O)[O-])cc2)=N/C1=C/N1CC2CC(C1)c1cccc(=O)n1C2 (stereo not given),inconclusive: 130%
17,CNC(=O)c1cccn(Cc2cc(C(F)(F)F)cc(C(F)(F)F)c2)c1=O,inconclusive: 106%
18,COc1cc(OC)cc(C2(C#N)CCN(C)CC2)c1,inconclusive: 104%
19,O=C1NC(=O)N(c2ccc(Cl)cc2)C(=O)/C1=C/c1coc2ccc(O)cc2c1=O,inconclusive: 83.2%
20,CCCCCCC(=O)c1c(O)n(-c2ccccc2OC)c(=O)[nH]c1=O (tested in a mixture with another compound),inconclusive: 112%
21,Nc1nnc(P(c2ccccc2)c2ccccc2)s1,inconclusive: 91.6%
22,Cc1cccc(CN2CCN(c3ccc(Cl)cc3)CC2)c1,inconclusive: 107%

row,SMILES,binding response (% of control)
1,C=CC1CN2CCC1CC2C(OC(C)=O)c1ccnc2ccc(OC)cc12 (stereo not given),inconclusive: 84.9%
2,O=C1/C(=C\c2ccc(Cl)c(Cl)c2)N2CCC1CC2,inconclusive: 102%
3,O=C(O)c1sc2cc(Cl)ccc2c1Cl,inconclusive: 103%
4,C/C(=N\NC(=O)c1ccncc1)c1c(O)n(-c2ccccc2)c(=O)[nH]c1=O,inconclusive: 86%
5,CCc1ccc(-n2c(O)c(C(C)=O)c(=O)[nH]c2=O)cc1 (tested in a mixture with another compound),inconclusive: 167%
6,CC(=O)Nc1ccccc1C(=O)OCc1cccc(F)c1,inconclusive: 103%
7,O=C(c1ccc(F)cc1)C(Cc1ccccc1)N1CCCCC1 (stereo not given),inconclusive: 99.3%
8,O=C1NC(=O)N(c2ccccc2)C(=O)/C1=C/c1ccoc1,inconclusive: 76.9%
9,C/C(=N\NC(N)=O)c1c(O)n(C)c(=O)n(C)c1=O,inconclusive: 93.9%
10,CN1C(=O)CC(c2ccccc2)Nc2ccccc21 (stereo not given),inconclusive: 88.8%
11,COc1ccc2c(c1)C13CCCC[C@@H]1C(C2)N(C)CC3 (stereo not given in full),inconclusive: 82.9%
12,Cn1c(O)c(C2=NNC(c3ccc(Cl)cc3)C2)c(=O)n(C)c1=O (stereo not given),inconclusive: 106%
13,COC(=O)[C@@]1(C#N)[C@@H]2C=CC(C(C)=O)=CN2[C@@H](C(N)=O)[C@@H]1c1ccc(F)cc1,inconclusive: 70.7%
14,CC(=O)Nc1nnc(CCN(CCc2nnc(NC(C)=O)s2)[N+](=O)[O-])s1,inconclusive: 99.7%
15,CCN(CC)S(=O)(=O)N1CCC(C(=O)N2CCC3(CC2)OCCO3)CC1,inactive: 99.8%
16,Cc1ncc(CN2CCCC(C(=O)c3cccc(Cl)c3)C2)s1 (stereo not given),inactive: 104%
17,CN1C(=O)/C(=C\c2ccc(N3CCCCCC3)cc2)C(=O)NC1=S,inconclusive: -277%
18,CCC(=NCc1ccco1)c1c(O)n(-c2ccc(Cl)cc2)c(=O)[nH]c1=O,inconclusive: 78.8%
19,CCC1(C(=O)c2ccccc2)C2c3ccccc3OC(=O)C21C(C)=O (stereo not given),inconclusive: -613%
20,Cc1ccccc1-n1c(/C=C/c2ccccn2)nc2ccccc2c1=O,inconclusive: 95.3%
21,COc1ccc(-c2nn(CCC#N)cc2C(=O)Nc2ccccc2Br)cc1[N+](=O)[O-],inconclusive: 93.2%
22,Cc1ccc(CNC2=NCCS2)cc1,inconclusive: 106%

# Looked up above:
# Cc1ncc(CN2CCCC(C(=O)c3cccc(Cl)c3)C2)s1 (stereo not given) – binding response (% of control): inactive: 104%
# CC(=O)Nc1ccccc1C(=O)OCc1cccc(F)c1 – binding response (% of control): inconclusive: 103%
# Cn1c(O)c(C2=NNC(c3ccc(Cl)cc3)C2)c(=O)n(C)c1=O (stereo not given) – binding response (% of control): inconclusive: 106%
# COc1ccc2c(c1)C13CCCC[C@@H]1C(C2)N(C)CC3 (stereo not given in full) – binding response (% of control): inconclusive: 82.9%
# COC(=O)[C@@]1(C#N)[C@@H]2C=CC(C(C)=O)=CN2[C@@H](C(N)=O)[C@@H]1c1ccc(F)cc1 – binding response (% of control): inconclusive: 70.7%

# Following part

row,SMILES,binding response (% of control)
1,O=C(N/N=C/c1c(O)n(CCc2ccc(F)cc2)c(=O)[nH]c1=O)c1ccccc1,inconclusive: 45.8%
2,Cc1cc(C)cc(N2C(=O)NC(=O)/C(=C\c3cc(C)n(C)c3C)C2=O)c1,inconclusive: 98%
3,Cn1cccc1CN1CCN(C(=O)COc2ccccc2)CC1,inactive: 95.2%
4,O=c1[nH]c(=O)n(-c2ccc(Br)cc2)c(O)c1C=NC(CO)(CO)CO,inconclusive: 101%
5,CC1CCN(CC(=O)c2ccc3c(c2)OCCO3)CC1,inconclusive: 96.8%
6,O=C(c1ccc(N2CC3CC(C2)c2cccc(=O)n2C3)c([N+](=O)[O-])c1)N1CCCC1 (stereo not given),inactive: 96.2%
7,CC(C(=O)O)N(C(=O)c1ccccc1)c1ccc(F)c(Cl)c1 (stereo not given),inactive: 99.3%
8,CCC(=NCc1ccco1)c1c(O)n(-c2ccc(OC)cc2)c(=O)[nH]c1=O,inactive: 88%
9,O=C(Nc1nccs1)C(Cl)(Cl)Cl,inconclusive: 80.7%
10,CCC(=NCCCn1ccnc1)c1c(O)n(-c2ccc(OC)cc2)c(=O)[nH]c1=O,inconclusive: 43%
11,O=C(c1cn(Cc2ccccc2)c2ccccc12)N1CCCCC1,inconclusive: 96.1%
12,COc1cc2c(cc1OC)C(C(=O)NC(C)C)C1CCCCN1C2=O (stereo not given),inconclusive: 96.1%
13,NC(Cc1nc2ccccc2[nH]1)c1ccc(Cl)cc1 (stereo not given),inconclusive: 315%
14,O=c1c2ccccc2nc(CNCC2CCCO2)n1-c1ccc(F)cc1 (stereo not given),inconclusive: 89.4%
15,Cc1ccccc1NC(=O)NCCN1CC1,inconclusive: 83.9%
16,O=C(C[n+]1ccn(CCCNP2(=O)C=C(c3ccccc3)OC(c3ccccc3)=C2)c1)c1ccccc1,inconclusive: 94.3%
17,COc1ccc(NP(=O)(Nc2ccc(OC)cc2)Oc2ccccc2)cc1,inactive: 104%
18,O=c1[nH]c(=S)n(C2CC2)c(O)c1C=NCC1CCCO1 (stereo not given),inconclusive: 99.9%
19,O=C(N[C@H]1CP(=O)(Oc2ccccc2)O[C@H](COCc2ccccc2)[C@H]1O)C(Cl)(Cl)Cl (stereo not given in full),inconclusive: 101%
